Results deposited as PubChem BioAssay AID1159584 (Peter MacCallum Cancer Centre, 2016)
The deposit covers about 18,000 reagents; below is an unselected part. Not all columns of the deposit are shown. Not given: the amount of reagent, the time to read-out.

Assay: 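Genes that CDH1-null MCF10A cells selectively depend on to survive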 (primary screen)
Cell system: human MCF10A breast epithelial cells, parental and CDH1-null
Reagent: siRNA against human genes
Detection: 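ATP luminescence (CellTiter-Glo) viability per line relative to mean mock wells over all plates, and the ratio of CDH1-null to parental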
Reading the numbers: CDH1-null / parental viability ratio: higher = CDH1-null cells survive relatively better than parental; CDH1-null viability vs mock: higher = more viable CDH1-null cells

The first 5 records as a preview:
target | CDH1-null / parental viability ratio | CDH1-null viability vs mock (fraction of mock)
CRHR1 | 0.93 | 0.89
SPP2 | 0.99 | 0.9
ZNF197 | 0.98 | 0.82
GPR88 | 0.79 | 0.65
VCX | 1.11 | 1

The list itself, repeating the preview:
target | CDH1-null / parental viability ratio | CDH1-null viability vs mock (fraction of mock)
CRHR1 | 0.93 | 0.89
SPP2 | 0.99 | 0.9
ZNF197 | 0.98 | 0.82
GPR88 | 0.79 | 0.65
VCX | 1.11 | 1
CD200R1 | 0.84 | 0.76
AMOTL1 | 0.96 | 0.48
TADA1 | 0.91 | 0.68
ADCY2 | 0.94 | 0.91
CCNP | 0.84 | 0.72
TRAPPC8 | 0.84 | 0.74
NOTCH4 | 0.85 | 0.84
LRRFIP1 | 0.82 | 0.82
GID4 | 0.92 | 0.34
CXCL13 | 1.02 | 0.88
TNFSF13B | 1.26 | 0.72
H2AC17 | 1.17 | 0.98
SRP54 | 1.36 | 0.8
STOML2 | 1 | 0.65
OR2G3 | 1.04 | 0.73
CIRBP | 0.56 | 0.46
SUGP1 | 0.67 | 0.61
OR4N5 | 1.22 | 0.88
FOXRED1 | 0.96 | 0.73
NCF1 | 1.08 | 0.84
UBAP1 | 1.09 | 0.94
OSTM1 | 1.48 | 0.92
EEF1AKMT3 | 1.1 | 0.77
EHHADH | 0.96 | 0.94
TVP23C | 0.89 | 0.62
TRAPPC14 | 0.69 | 0.44
AMY1C | 1.25 | 1.05
AADACL2 | 1.02 | 0.97
QTMAN | 0.6 | 0.55
DPYS | 1.35 | 1.01
TBC1D31 | 1.09 | 0.72
BCAP31 | 0.81 | 0.26
MTFMT | 1.09 | 1.02
PLEKHA3 | 1.13 | 1.08
BAZ1B | 0.98 | 0.88
HOOK1 | 0.96 | 0.94
SMIM15 | 1.21 | 1.05
OSBP | 1.05 | 1.09
MTSS2 | 1.05 | 0.99
GPR142 | 1.36 | 0.98
EMP2 | 1.06 | 0.9
ATG14 | 1.24 | 1.14
HLA-DRB5 | 1.11 | 0.69
TRPC5 | 1.19 | 0.92
PARP3 | 0.99 | 0.92
GALNT8 | 1.07 | 0.88
PTPN11 | 1.28 | 0.82
CBLIF | 1.16 | 1.09
WBP1L | 1 | 0.68
PIM2 | 1.06 | 0.85
RBBP9 | 0.62 | 0.36
TNNC1 | 0.7 | 0.42
NCK1 | 0.71 | 0.68
IYD | 1.04 | 0.96
TACR2 | 1.31 | 1.02
IFNW1 | 1.33 | 0.48
TMEM121 | 0.84 | 0.64
GEMIN7 | 0.81 | 0.58
TEKT3 | 0.62 | 0.4
GMFG | 1.24 | 0.68
NCOA3 | 0.9 | 0.76
MREG | 0.94 | 1.27
TSLIG1 | 0.76 | 0.52
PLAU | 1.18 | 0.93
LRG1 | 0.98 | 0.61
PDCL | 1.07 | 0.88
DDO | 0.93 | 0.78
UBE3A | 1.27 | 0.66
EIF4E | 0.96 | 0.76
KIF9 | 1.15 | 0.9
BUB1B | 0.91 | 0.78
LMO2 | 1 | 0.94
ARL4D | 1.13 | 0.7
RPL6 | 1.38 | 0.4
MOSPD1 | 1.08 | 0.82
MYRFL | 1.03 | 0.6
MTCH2 | 1.26 | 0.44
KIF11 | 1.34 | 0.51
TAF8 | 0.93 | 0.97
KBTBD8 | 1.09 | 0.7
SMN1 | 0.96 | 0.7
DISP1 | 1.02 | 0.61
